In article doi:10.1101/2024.03.18.585503:
Substitutions are numbered along the chain they refer to. These are yes or no findings as the source states them, for the method shown. Binding seen in cells or lysates may run through a third protein. Here binding means that the protein was enriched with, or labelled near, the bait; the list need not be complete. For part of these data: Tags and fused reporters may be left off the sequences shown.

Amino acid sequences for entries named in this document (tags omitted).
UniProt P0CX83: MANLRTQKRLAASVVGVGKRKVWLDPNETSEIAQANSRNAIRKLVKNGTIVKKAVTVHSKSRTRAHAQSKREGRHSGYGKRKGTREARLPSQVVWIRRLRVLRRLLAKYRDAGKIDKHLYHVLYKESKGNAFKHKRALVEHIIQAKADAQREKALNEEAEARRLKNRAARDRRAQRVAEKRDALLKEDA
UniProt P0CX54: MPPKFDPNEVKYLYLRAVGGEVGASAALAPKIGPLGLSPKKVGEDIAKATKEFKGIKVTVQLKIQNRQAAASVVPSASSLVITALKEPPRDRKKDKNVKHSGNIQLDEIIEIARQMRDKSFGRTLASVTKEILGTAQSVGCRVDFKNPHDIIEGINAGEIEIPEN
UniProt P0CX82: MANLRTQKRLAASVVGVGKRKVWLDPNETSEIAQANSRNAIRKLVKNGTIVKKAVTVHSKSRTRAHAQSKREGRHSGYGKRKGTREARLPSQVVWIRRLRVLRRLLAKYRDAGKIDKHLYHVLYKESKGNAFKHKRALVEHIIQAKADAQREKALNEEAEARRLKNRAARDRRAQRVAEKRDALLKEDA
UniProt P0CX53: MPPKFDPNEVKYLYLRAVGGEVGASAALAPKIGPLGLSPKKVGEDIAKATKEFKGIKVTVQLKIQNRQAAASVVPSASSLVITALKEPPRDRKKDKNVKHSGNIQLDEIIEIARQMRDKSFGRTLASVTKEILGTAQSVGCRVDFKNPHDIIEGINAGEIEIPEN

Key:
Assay in all cases: affinity purification with mass spectrometry
[1] = target: T1, Rpl34a-FLAG (S. cerevisiae) (UniProt P87262)
T1 sequence: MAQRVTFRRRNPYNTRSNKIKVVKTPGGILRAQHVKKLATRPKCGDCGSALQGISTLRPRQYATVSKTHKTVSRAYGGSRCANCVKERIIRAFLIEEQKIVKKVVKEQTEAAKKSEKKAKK

[2] = target: Rpl19b-FLAG (S. cerevisiae) (UniProt P0CX83)
[3] = target: Rpl12b-FLAG (S. cerevisiae) (UniProt P0CX54)
[4] = target: T2, Rpl34b-FLAG (S. cerevisiae) (UniProt P40525)
T2 sequence: T1 sequence with I90V, A119S

[5] = target: Rpl19a-FLAG (S. cerevisiae) (UniProt P0CX82)
[6] = target: Rpl12a-FLAG (S. cerevisiae) (UniProt P0CX53)

- binding [1]: binds
- binding [2]: binds
- binding [3]: binds
- binding [4]: binds
- binding [5]: binds
- binding [6]: binds
Substance: Rps14b (from UniProt P39516 1-138)
